# Laboratory results taken from PubChem BioAssay AID1347075 (National Center for Advancing Translational Sciences (NCATS), 2019).
# The campaign covered roughly 400,000 compounds. About 5,500 (1.4%) were called active. Inconclusive means that the source gave no clear call. Such entries were picked first, then a sample of the others. Calls come from the whole dose curve; as a rule, active = well fitted cell-killing curve with a large enough effect; inconclusive = small, poorly fitted or top-dose-only effect, or effect the other way; inactive = flat fitted curve, though single readings scatter. Potencies beside an inconclusive call are fits to weak or partial responses and may not hold up.
# Test: qHTS assay for MDR1-selective chemotherapeutics: Primary screen using the parental adenocarcinoma cell KB-3-1; note: nearly all actives have a fitted effect of over 60% in size
# Conditions: KB-3-1 viability, CellTiter-Glo ATP luminescence, 72 h; activity change, negative = cytotoxic: at 46.1 µM (top of the series)
# How it was run: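 Screening of KB-3-1 cells (DMEM, 10% FBS, phenol-red free) ran from lowest to highest compound concentration; after 72 h at 37 °C viability was read luminescently and curves fitted.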
# % is set by controls: 0 for no effect and ±100 for the full control effect; potency is the fitted concentration of half-maximal effect.
SMILES,"activity change, negative = cytotoxic",Potency
Clc1ccc2nc(-c3cccc(Br)c3)c(Cc3ccccc3)n2c1,inactive: -0.975%,–
CC1(C)CC(=O)C2=C(C1)OC1=C(C(=O)CC(C)(C)C1)C2c1ccccc1Cl,inactive: -1.33%,–
O=C(Nc1cccc(-c2csc(Nc3ccc(Cl)cc3)n2)c1)c1cccc(C(F)(F)F)c1,–,"inconclusive: 20.6 µM [cytotoxic, single point]"
Cc1ccc(N2C(=O)CS/C2=C(\C(Cl)=C(Cl)Cl)[N+](=O)[O-])cc1,inactive: -2.83%,–
CS(=O)(=O)N1CCN(Cc2cc3nc(-c4cccc5[nH]ncc45)nc(N4CCOCC4)c3s2)CC1,–,active: 5.01 µM
COc1cc(/C=N/N=C(/N)c2nonc2N)cc(Br)c1OCc1cccc(C)c1,inactive: 0%,–
O=C(COc1ccc2c3c(c(=O)oc2c1)CCCC3)NCc1ccccn1,–,"inconclusive: 13 µM [rising, partial curve, poor fit]"
CN(C(=O)C1CCC(=O)N(Cc2ccccc2F)C1)C1CCOCC1 (configuration not stated),inactive: 19.5%,–
O=C(c1ccco1)N1CCN(c2ccc([N+](=O)[O-])cc2Cl)CC1,inactive: -5.24%,–
CCn1nc(C)c([N+](=O)[O-])c1C(=O)NNC(=O)c1ccc(Cl)cc1,inactive: 0.802%,–
O=C(N/N=C\c1c(O)ccc2ccccc12)c1ccc(S(=O)(=O)N2CCCCC2)cc1,inactive: 0%,–
Nc1ccc(O)cc1,–,"inconclusive: 14.6 µM [cytotoxic, partial curve]"
Cc1cnc(CN2CCCC(C(=O)c3ccc4c5c(cccc35)CC4)C2)[nH]1 (configuration not stated),–,"inconclusive: 20.6 µM [cytotoxic, single point]"
CCOC(=O)c1ccccc1NC(=O)c1cn(CC(C)C)c(=O)c2cc(OC)c(OC)cc12,inactive: 18.5%,–
[O-]/C(=C(\C(=S)Nc1cccc2ccccc12)[n+]1ccccc1)c1ccc2c(c1)OCCO2,inactive: -1.2%,–
COC(=O)[C@]1(CC(C)C)N[C@H](c2ccc(-c3ccc(F)cc3)cc2)[C@@H]2C(=O)N(C)C(=O)[C@@H]21,–,"inconclusive: 16.4 µM [cytotoxic, single point]"
Cc1[nH]c2ccccc2c1/C=C/c1nc2ccccc2c(=O)[nH]1,–,"inconclusive: 29.1 µM [cytotoxic, single point]"
COc1ccc(NS(=O)(=O)c2cccc(C(=O)NCc3ccccc3CN3CCOCC3)c2)cc1,–,"inconclusive: 16.4 µM [cytotoxic, single point]"
CCc1nc(Sc2nnnn2-c2ccccc2)c2c3c(sc2n1)CCCC3,inactive: -14.2%,–
CN(CCO)c1ccc2c(c1)OC[C@@H](Cc1ccccc1)NS2(=O)=O,inactive: 14%,–
Cc1ccc2nc(-c3ccc(Cl)cc3)c(Cc3cccc(Cl)c3)n2c1,–,"inconclusive: 23.1 µM [cytotoxic, single point]"
Cc1ccc(S(=O)(=O)NC(=O)Nc2cccc(S(=O)(=O)N(C)C)c2)cc1,inactive: 16.5%,–
N#CC1=C(N)NC(SCC(=O)c2ccc(Br)cc2)=C(C#N)C12CCCCC2,–,"inconclusive: 18.4 µM [cytotoxic, single point]"
COc1ccc(C(=O)OCC(=O)N2CCN(S(=O)(=O)c3ccc(C)cc3)CC2)cc1[N+](=O)[O-],inconclusive: -0.377%,–

SMILES,"activity change, negative = cytotoxic",Potency
COc1ccc(C(=O)Nn2c(SCC(=O)NCC3CCCO3)nc3ccccc3c2=O)cc1 (configuration not stated),–,"inconclusive: 18.4 µM [cytotoxic, single point]"
O=C(NC1c2ccccc2-c2ccccc21)N1CCCCC1,–,"inconclusive: 6.51 µM [cytotoxic, partial curve, poor fit]"
CC(C)(C)c1ccc(C(=O)Nc2ccc(Cl)cc2)cc1,inconclusive: 4.3%,–
COc1cc(OC)cc(C(=O)N[C@H](C(=O)OCC(=O)NC(C)c2ccccc2)C(C)C)c1 (some centres not stated),inactive: 6.04%,–
COCCn1c(Cc2ccccc2)nnc1SCc1nc2ccccc2c(=O)[nH]1,–,"inconclusive: 16.4 µM [cytotoxic, single point]"
CCSc1nc(N)c(C#N)c(-c2ccccc2Cl)c1C#N,inactive: 15.6%,–
Cc1ccc2c(c1)C(=O)C(=O)N2Cc1ccccc1,–,"inconclusive: 29.1 µM [cytotoxic, single point]"
O=C1OC(c2ccccc2)=NC12CC2c1ccc(Cl)cc1 (configuration not stated),–,"inconclusive: 23.1 µM [cytotoxic, single point]"
Cc1ccc(C)c(OCc2cc(C(=O)NC3CCN(Cc4ccccc4)CC3)no2)c1,–,"inconclusive: 20.6 µM [cytotoxic, single point]"
CCCCCCCCCC[n+]1cc(Br)cc(Br)c1,–,"inconclusive: 5.17 µM [cytotoxic, partial curve, poor fit]"
CN(Cc1ccccc1)S(=O)(=O)c1ccc(Cl)c(C(=O)N2CCOCC2)c1,inactive: -8.46%,–
OCCNc1ncnc2c1nnn2Cc1ccccc1Cl,inactive: 0%,–
COc1ccc(CCNC(=O)CCCCn2c(=O)c3ccccc3n(Cc3cc(C)ccc3C)c2=O)cc1OC,inactive: 3.22%,–
Cc1cc(C)c2sc(NC(=O)C3CC3)nc2c1,inactive: -11.7%,–
CCOc1ccccc1NC(=O)Cn1c(=O)n(CC(=O)NCc2ccccc2Cl)c(=O)c2sccc21,inactive: 21.1%,–
COc1cc(CNc2ncnc3c2ncn3[C@H]2CN(Cc3ccc(-c4ccccc4)cc3)C[C@@H](CO)O2)cc(OC)c1OC,–,"inconclusive: 29.1 µM [cytotoxic, single point]"
COc1ccc2nc(Nc3nc(CSc4ccc(C)cc4)cc(=O)[nH]3)nc(C)c2c1,–,"inconclusive: 29.1 µM [cytotoxic, single point]"
Cc1c(C(=O)NCc2ccccn2)sc2nc(-c3ccccc3)cn12,–,active: 9.2 µM
CCCn1c2ccccc2c2cnn(CC(=O)NCC3CCN(Cc4ccc(C)cc4)CC3)c(=O)c21,–,"inconclusive: 11.6 µM [cytotoxic, partial curve]"
CC1(C(=O)NS(=O)(=O)c2ccc3c(c2)CCO3)CCN1C(=O)c1ccccc1CCc1ccccc1 (configuration not stated),inactive: 0%,–
O=C(OCCCN=C1NS(=O)(=O)c2ccccc21)c1ccccc1F,–,"inconclusive: 29.1 µM [rising, single point]"
Cc1cccc(N(CC(=O)NCCc2ccccc2)S(=O)(=O)c2ccccc2)c1C,–,"inconclusive: 29.1 µM [cytotoxic, single point]"
O=C1CCCC2=C1C1(CCCC1)N=C(Nc1nc3cc(-c4ccccc4)ccc3o1)N2,–,"inconclusive: 29.1 µM [cytotoxic, single point]"
COc1cccc(/C=C2\CCC(C3CCCC3)C2=O)c1OC (configuration not stated),inactive: -13.9%,–

SMILES,"activity change, negative = cytotoxic",Potency
C[C@@]12C(=O)N(c3ccccc3)C(=O)N1[C@@H]1c3ccccc3OC[C@@H]1[C@H]2c1ccccc1,–,"inconclusive: 29.1 µM [cytotoxic, single point]"
Cc1ccc(S(=O)(=O)N2CCN(S(=O)(=O)c3ccccc3)C2c2ccc(N(C)C)cc2)cc1 (configuration not stated),inactive: -14.3%,–
CCc1ccc2c(c1)NC(=O)C2(C)Cc1ccc(C(F)(F)F)o1 (configuration not stated),inactive: 0%,–
COc1cccc(/C=C2/Sc3ccc(C(=O)NCCN4CCCCCC4)cc3NC2=O)c1,inactive: -16.7%,–
Cc1ccc(Cn2nnc3c(=O)n(CC(=O)NCc4ccco4)cnc32)cc1,–,active: 23.1 µM
CN=c1scc(-c2ccc(F)cc2)n1/N=C/c1ccc(O)c(O)c1,–,"inconclusive: 29.1 µM [cytotoxic, single point]"
CO/N=C/NC(=O)Cc1cn(-c2ncc(C(F)(F)F)cc2Cl)c2ccccc12,–,"inconclusive: 29.1 µM [cytotoxic, single point]"
O=C1C(Cl)=C(Nc2ccc(F)cc2)C(=O)N1CCc1ccccc1,inactive: -4.86%,–
O=C1CC(N2CCOCC2)C(=O)N1Cc1ccc(N2CCCC2=O)cc1 (configuration not stated),inactive: 15.6%,–
COc1cccc(C(NC(C)=O)c2nc(-c3cccc(O)c3)cs2)c1 (configuration not stated),–,"inconclusive: 29.1 µM [cytotoxic, single point]"
Cc1ccc2c(c1)N(CC(=O)Nc1ccccc1C(F)(F)F)C(=O)c1cccnc1O2,inactive: 4.19%,–
CCOC(=O)c1cc(CC)sc1NC(=O)c1cc([N+](=O)[O-])ccc1N1CCOCC1,–,active: 1.03 µM
O=C(O)c1ccc(NC(=S)NC(NC(=O)c2ccco2)C(Cl)(Cl)Cl)cc1 (configuration not stated),inactive: -1.84%,–
O=C(NN=C1CCCCCC1)c1cc(-c2ccccc2)nc2ccccc12,–,"inconclusive: 20.6 µM [cytotoxic, single point]"
Cc1sc2ncnc(N3CCN(CCOc4ccc(Cl)cc4)CC3)c2c1C,–,"inconclusive: 6.31 µM [cytotoxic, partial curve, poor fit]"
CCN(CC)CCn1c(=S)[nH]c2cc(C(=O)NCc3ccccc3Cl)ccc2c1=O,inconclusive: -31.4% [cytotoxic],–
Cc1cccc(NC(=S)NN(Cc2ccccc2)c2ccccc2)c1C,–,"inconclusive: 25.1 µM [cytotoxic, single point]"
CCN1CCN(c2nc(C)nc3c2sc(=S)n3C)CC1,inconclusive: -0.0283%,–
CCOc1ccc(S(=O)(=O)N2CCN(C(=O)COc3ccc(Br)cc3)CC2)cc1,–,"inconclusive: 29.1 µM [cytotoxic, single point]"
C=CCNC(=O)c1cnn2c1NC(=C)C=C2C,–,"inconclusive: 29.1 µM [rising, single point]"
COc1ccc(Cn2c(C(=O)O)c(CNCc3ccc(OC)cc3OC)c3ccc(C)cc32)cc1,–,"inconclusive: 11.6 µM [cytotoxic, partial curve]"
COc1ccc(CCN(C)c2ccc(S(=O)(=O)N3CCCC3)cc2[N+](=O)[O-])cc1OC,–,"inconclusive: 14.6 µM [cytotoxic, partial curve]"
CCOC(=O)N1CCN(C(=O)c2ccc3c(c2)N(C)C(=O)/C(=C\c2ccc(OCC)c(OC)c2)S3)CC1,–,"inconclusive: 18.4 µM [cytotoxic, single point]"
Cc1cc(C)n(-c2ccc(C(=O)Nc3ccc(S(=O)(=O)N(C)C)cc3)cc2)n1,inactive: 0%,–

# An excerpt of these results, with tabs:
SMILES	activity change, negative = cytotoxic	Potency
COc1ccc(C(=O)OCC(=O)N2CCN(S(=O)(=O)c3ccc(C)cc3)CC2)cc1[N+](=O)[O-]	inconclusive: -0.377%	–
COc1ccc(C(=O)Nn2c(SCC(=O)NCC3CCCO3)nc3ccccc3c2=O)cc1 (configuration not stated)	–	inconclusive: 18.4 µM [cytotoxic, single point]
